Some of the results follow. Small differences around the control level are noise.
Compound: Cc1nc(Nc2ncc(C(=O)Nc3c(C)cccc3Cl)s2)cc(N2CCN(CCO)CC2)n1 [dasatinib]
Assay: log2 fold change of tryptic peptide abundance, ligand vs vehicle (limited proteolysis) (log2 ratio); higher = more trypsin-susceptible (destabilized)
Details: ligand concentration: 5 uM; sample: K562 cleared lysate

Amino acid sequences for entries named in this document (tags omitted). A change or cut given only in a name is not applied to a line headed by its entry.
UniProt Q8IYN6: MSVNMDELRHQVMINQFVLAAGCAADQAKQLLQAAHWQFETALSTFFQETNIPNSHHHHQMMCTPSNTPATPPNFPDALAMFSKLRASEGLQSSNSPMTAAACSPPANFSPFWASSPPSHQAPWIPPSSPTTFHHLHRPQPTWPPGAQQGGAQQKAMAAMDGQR
UniProt Q8IZQ5, whole entry: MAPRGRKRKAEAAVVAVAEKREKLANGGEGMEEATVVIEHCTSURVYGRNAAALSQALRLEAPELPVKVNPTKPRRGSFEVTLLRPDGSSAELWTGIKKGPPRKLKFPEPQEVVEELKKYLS
UniProt Q8IVM0: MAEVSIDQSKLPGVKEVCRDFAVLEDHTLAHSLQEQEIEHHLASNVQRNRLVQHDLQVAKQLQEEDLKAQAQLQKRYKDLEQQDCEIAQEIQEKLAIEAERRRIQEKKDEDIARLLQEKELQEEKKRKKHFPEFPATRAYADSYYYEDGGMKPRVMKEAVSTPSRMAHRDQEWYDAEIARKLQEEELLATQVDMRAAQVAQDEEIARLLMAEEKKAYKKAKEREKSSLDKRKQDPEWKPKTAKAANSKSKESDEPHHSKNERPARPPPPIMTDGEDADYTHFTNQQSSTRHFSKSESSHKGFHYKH
UniProt Q8IW50: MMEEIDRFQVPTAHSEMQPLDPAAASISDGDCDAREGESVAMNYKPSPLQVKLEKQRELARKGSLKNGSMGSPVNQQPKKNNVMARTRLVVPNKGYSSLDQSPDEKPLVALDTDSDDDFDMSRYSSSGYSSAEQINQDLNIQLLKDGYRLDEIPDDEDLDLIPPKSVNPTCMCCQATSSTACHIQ
UniProt Q8N0Z3: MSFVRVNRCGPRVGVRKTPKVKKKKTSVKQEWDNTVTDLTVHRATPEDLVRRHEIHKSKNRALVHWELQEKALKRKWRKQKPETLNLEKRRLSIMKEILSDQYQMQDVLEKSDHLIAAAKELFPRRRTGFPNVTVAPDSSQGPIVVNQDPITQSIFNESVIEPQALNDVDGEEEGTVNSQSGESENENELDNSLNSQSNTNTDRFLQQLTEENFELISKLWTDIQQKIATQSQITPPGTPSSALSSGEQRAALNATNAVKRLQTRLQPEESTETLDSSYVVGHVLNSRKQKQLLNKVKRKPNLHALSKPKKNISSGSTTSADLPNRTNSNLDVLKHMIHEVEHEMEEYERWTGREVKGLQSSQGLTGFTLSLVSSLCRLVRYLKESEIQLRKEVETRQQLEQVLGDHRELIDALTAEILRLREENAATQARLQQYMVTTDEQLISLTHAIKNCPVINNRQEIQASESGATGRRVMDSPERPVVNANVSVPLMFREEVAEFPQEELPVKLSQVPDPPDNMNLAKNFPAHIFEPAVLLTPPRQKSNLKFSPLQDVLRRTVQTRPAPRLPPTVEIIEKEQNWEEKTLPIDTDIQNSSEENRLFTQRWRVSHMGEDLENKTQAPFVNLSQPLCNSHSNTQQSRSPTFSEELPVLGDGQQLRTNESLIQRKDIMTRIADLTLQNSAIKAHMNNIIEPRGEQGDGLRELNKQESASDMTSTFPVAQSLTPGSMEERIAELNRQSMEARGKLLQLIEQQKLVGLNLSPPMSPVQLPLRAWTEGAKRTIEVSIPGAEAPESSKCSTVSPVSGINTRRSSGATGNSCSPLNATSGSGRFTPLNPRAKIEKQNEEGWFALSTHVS
UniProt Q8IU81: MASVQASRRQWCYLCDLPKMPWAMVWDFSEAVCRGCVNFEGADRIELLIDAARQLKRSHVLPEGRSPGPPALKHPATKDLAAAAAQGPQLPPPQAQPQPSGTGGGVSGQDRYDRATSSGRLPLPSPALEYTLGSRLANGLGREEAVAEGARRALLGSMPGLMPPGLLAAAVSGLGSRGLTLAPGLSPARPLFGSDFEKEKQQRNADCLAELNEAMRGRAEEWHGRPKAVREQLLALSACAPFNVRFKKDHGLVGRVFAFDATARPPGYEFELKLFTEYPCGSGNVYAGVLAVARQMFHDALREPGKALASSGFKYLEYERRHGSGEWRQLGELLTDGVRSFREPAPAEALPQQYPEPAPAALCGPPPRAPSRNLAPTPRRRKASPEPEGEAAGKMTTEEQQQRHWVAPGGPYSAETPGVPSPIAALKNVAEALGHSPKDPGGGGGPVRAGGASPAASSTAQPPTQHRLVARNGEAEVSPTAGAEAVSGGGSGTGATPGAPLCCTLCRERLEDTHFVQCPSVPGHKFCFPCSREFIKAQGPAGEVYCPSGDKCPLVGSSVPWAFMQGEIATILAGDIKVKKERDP
UniProt Q8IWZ6: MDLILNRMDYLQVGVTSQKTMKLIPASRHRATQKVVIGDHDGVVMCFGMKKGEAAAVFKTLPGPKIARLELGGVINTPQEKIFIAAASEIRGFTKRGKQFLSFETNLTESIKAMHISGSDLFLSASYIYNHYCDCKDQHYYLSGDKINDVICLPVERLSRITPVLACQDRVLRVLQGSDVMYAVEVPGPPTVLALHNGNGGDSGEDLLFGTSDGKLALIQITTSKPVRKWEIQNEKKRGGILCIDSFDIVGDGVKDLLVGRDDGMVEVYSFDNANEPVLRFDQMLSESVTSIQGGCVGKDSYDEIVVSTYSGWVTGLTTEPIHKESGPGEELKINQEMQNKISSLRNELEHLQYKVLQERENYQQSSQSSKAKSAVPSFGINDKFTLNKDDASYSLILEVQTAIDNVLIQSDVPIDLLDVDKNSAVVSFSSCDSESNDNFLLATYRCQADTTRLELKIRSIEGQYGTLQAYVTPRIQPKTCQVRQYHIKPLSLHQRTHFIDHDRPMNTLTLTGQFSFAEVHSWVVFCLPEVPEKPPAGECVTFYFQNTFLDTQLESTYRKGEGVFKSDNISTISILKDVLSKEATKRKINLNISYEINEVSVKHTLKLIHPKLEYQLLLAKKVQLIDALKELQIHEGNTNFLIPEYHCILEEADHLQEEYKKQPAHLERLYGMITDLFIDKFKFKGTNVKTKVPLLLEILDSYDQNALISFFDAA
UniProt Q86V87: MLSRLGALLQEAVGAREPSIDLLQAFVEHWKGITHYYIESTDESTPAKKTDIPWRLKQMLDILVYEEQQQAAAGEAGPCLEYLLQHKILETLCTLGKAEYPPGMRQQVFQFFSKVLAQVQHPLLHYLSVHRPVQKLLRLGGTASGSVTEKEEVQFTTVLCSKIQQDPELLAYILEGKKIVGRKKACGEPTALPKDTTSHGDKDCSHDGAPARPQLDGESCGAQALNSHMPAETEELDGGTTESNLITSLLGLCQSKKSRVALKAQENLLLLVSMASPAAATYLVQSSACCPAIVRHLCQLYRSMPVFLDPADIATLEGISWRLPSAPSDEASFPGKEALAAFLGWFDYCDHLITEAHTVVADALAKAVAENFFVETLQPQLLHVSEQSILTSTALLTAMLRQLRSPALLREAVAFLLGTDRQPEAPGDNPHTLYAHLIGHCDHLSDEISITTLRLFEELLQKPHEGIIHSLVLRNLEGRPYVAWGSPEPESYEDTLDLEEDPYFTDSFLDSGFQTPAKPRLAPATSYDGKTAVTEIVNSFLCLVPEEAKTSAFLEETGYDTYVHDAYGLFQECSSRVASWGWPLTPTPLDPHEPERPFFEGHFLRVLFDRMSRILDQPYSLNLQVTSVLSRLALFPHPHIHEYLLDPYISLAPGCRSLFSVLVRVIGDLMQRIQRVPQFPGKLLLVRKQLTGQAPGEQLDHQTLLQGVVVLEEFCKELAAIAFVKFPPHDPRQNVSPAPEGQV
UniProt Q86YW9: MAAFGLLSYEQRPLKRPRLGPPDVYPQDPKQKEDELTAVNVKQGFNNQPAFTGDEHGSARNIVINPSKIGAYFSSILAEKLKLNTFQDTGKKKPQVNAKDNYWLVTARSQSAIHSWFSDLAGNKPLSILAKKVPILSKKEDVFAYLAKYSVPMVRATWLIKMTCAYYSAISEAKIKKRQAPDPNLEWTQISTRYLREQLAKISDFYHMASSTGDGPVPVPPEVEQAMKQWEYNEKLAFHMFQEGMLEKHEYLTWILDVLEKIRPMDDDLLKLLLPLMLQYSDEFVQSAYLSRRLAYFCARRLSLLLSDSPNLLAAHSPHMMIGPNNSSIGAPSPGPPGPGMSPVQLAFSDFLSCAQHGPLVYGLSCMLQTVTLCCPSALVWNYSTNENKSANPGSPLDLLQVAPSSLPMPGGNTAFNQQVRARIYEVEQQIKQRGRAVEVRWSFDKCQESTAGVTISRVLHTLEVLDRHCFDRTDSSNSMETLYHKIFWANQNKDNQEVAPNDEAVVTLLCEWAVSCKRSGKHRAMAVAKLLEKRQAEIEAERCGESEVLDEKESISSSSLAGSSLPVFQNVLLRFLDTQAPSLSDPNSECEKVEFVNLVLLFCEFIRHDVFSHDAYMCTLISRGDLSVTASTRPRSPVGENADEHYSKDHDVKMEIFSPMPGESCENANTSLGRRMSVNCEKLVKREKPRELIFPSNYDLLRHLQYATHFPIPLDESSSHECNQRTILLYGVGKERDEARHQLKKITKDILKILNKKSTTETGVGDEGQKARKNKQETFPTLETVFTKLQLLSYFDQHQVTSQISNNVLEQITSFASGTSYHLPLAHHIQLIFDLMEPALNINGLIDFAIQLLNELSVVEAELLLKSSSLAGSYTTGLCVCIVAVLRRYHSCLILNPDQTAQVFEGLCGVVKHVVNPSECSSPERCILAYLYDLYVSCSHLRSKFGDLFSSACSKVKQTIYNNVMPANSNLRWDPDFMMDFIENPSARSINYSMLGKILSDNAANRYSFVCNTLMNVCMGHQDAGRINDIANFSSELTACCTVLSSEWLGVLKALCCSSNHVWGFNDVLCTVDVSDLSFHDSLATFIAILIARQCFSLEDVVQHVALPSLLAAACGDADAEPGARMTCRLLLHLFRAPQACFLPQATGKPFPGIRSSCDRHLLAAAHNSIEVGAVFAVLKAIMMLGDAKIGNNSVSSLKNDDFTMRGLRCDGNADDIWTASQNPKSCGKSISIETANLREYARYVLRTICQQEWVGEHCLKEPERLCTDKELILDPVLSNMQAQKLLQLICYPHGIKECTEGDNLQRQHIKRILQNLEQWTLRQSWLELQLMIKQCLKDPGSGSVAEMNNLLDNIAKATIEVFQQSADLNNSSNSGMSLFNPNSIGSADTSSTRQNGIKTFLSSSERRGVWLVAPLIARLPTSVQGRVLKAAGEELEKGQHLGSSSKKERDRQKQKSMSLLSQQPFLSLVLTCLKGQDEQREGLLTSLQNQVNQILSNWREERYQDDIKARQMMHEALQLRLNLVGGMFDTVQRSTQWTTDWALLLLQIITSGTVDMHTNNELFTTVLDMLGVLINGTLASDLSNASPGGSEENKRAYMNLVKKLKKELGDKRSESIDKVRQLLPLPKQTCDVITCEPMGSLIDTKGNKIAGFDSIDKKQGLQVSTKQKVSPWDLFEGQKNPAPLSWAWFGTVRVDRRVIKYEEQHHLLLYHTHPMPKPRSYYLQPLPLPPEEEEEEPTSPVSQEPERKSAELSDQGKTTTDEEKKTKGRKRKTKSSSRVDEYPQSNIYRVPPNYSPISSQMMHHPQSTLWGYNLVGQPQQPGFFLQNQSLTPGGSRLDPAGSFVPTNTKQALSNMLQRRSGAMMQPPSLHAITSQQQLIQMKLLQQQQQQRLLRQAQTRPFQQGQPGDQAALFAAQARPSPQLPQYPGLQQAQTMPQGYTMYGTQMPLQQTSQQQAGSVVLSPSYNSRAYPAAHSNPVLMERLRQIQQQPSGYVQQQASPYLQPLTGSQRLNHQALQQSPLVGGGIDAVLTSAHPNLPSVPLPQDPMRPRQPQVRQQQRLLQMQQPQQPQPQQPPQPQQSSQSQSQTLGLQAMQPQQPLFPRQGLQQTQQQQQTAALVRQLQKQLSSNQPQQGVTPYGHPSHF
UniProt Q8IXR5: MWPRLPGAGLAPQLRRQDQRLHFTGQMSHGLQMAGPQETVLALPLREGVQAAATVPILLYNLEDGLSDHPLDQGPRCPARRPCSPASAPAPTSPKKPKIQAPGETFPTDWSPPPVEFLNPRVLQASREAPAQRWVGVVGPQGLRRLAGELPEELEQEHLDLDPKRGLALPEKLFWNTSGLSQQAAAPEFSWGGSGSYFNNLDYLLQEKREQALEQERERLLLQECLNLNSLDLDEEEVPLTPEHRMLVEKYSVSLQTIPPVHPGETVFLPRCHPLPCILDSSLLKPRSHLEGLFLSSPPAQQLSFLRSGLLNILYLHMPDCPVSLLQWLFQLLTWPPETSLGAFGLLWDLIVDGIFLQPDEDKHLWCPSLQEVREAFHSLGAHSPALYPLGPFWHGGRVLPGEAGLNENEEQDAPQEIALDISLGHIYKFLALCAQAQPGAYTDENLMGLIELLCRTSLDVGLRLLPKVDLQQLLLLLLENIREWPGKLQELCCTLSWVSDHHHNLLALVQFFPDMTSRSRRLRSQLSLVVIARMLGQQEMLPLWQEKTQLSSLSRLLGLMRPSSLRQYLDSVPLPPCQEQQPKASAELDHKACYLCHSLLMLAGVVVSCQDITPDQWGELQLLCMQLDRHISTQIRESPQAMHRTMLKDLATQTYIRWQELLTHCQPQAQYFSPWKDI

Target | log2 fold change
HACE1 (peptide sequence: DSTEITSILLK, peptide start residue: 384) (UniProt Q8IYU2) | -0.106
UniProt Q8IYN6 (peptide sequence: AMAAMDGQR, peptide start residue: 156) | 0.0371
UniProt Q86W50 (peptide sequence: VSLNFKDPEAVR, peptide start residue: 42) | -0.0608
SCYL3 (peptide sequence: KDDVSPVMQFSSK, peptide start residue: 703) (UniProt Q8IZE3) | 0.251
RAB43 (peptide sequence: LVLVGDASVGK, peptide start residue: 21) (UniProt Q86YS6) | -0.171
UniProt Q8IZQ5 (peptide sequence: LKFPEPQEVVEELKK, peptide start residue: 105) | 0.467
PELP1 (peptide sequence: LKLDVGEAMAPPSHR, peptide start residue: 497) (UniProt Q8IZL8) | -0.113
UniProt Q86V20 (peptide sequence: SCTSEDKVGQSEALSR, peptide start residue: 379) | 0.297
UniProt Q8IYA2 (peptide sequence: ENVQLHKEVEEEMEK, peptide start residue: 469) | 0.494
CCDC50 (peptide sequence: LVQHDLQVAK, peptide start residue: 51) (UniProt Q8IVM0) | -0.205
FAM219A (peptide sequence: EGESVAMNYKPSPLQVK, peptide start residue: 36) (UniProt Q8IW50) | -0.403
ADGRG2 (peptide sequence: RYLCCGKLR, peptide start residue: 892) (UniProt Q8IZP9) | 0.132
UniProt Q8N0Z3 (peptide sequence: TNESLIQR, peptide start residue: 658) | -0.528
UniProt Q86XI8 (peptide sequence: GSQLEDQALR, peptide start residue: 579) | 0.0896
ZC3H18 (peptide sequence: KEQEPDFEEKR, peptide start residue: 319) (UniProt Q86VM9) | -0.644
UniProt Q8N0V3 (peptide sequence: HLLMSQQTLR, peptide start residue: 165) | -0.264
IRF2BP1 (peptide sequence: EEAVAEGAR, peptide start residue: 143) (UniProt Q8IU81) | -0.114
BBS7 (peptide sequence: LALIQITTSKPVR, peptide start residue: 216) (UniProt Q8IWZ6) | 0.856
HIPK1 (peptide sequence: VHMYDTVSQIK, peptide start residue: 546) (UniProt Q86Z02) | -0.226

Target | log2 fold change
USP48 (peptide sequence: ALLVSANQTLKELK, peptide start residue: 946) (UniProt Q86UV5) | 0.243
GCC2 (peptide sequence: YECELENLR, peptide start residue: 295) (UniProt Q8IWJ2) | 0.361
FAM160B2 (peptide sequence: LGALLQEAVGAR, peptide start residue: 5) (UniProt Q86V87) | 0.0971
UniProt Q86YW9 (peptide sequence: KKPQVNAK, peptide start residue: 92) | 0.00586
STX12 (peptide sequence: NPGPSGPQLR, peptide start residue: 11) (UniProt Q86Y82) | 0.185
UniProt Q86W54 (peptide sequence: NHMSDFR, peptide start residue: 164) | -0.0231
UniProt Q86WG3 (peptide sequence: SLIIVHPSWFIR, peptide start residue: 243) | -0.312
CEP57 (peptide sequence: NYFGAQPHYR, peptide start residue: 274) (UniProt Q86XR8) | 0.337
FAM178B (peptide sequence: DLATQTYIR, peptide start residue: 650) (UniProt Q8IXR5) | -0.204
ZNF440 (peptide sequence: THTGEKPYEYQECGK, peptide start residue: 249) (UniProt Q8IYI8) | 0.257
FCHSD1 (peptide sequence: VKPAQEVK, peptide start residue: 8) (UniProt Q86WN1) | 0.361
UniProt Q8IXH7 (peptide sequence: FPVVAMGVLK, peptide start residue: 420) | -0.691
SMC5 (peptide sequence: SIGPPEMHK, peptide start residue: 202) (UniProt Q8IY18) | -0.612
HPS6 (peptide sequence: GAQLTPEELR, peptide start residue: 418) (UniProt Q86YV9) | 0.0594
UniProt Q8IVL6 (peptide sequence: FEGLTVLK, peptide start residue: 510) | 0.0956
ZNF100 (peptide sequence: AFNWFSTLTTHR, peptide start residue: 241) (UniProt Q8IYN0) | 0.604
UniProt Q8IXM2 (peptide sequence: KVYEDSGIPLPAESPK, peptide start residue: 83) | -0.0996
MIER1 (peptide sequence: AYGKDFHLIQANKVR, peptide start residue: 302) (UniProt Q8N108) | 0.628

Quoted from the listing.
log2 fold change with UniProt Q8IXH7 (peptide sequence: FPVVAMGVLK, peptide start residue: 420) reads -0.691
log2 fold change with FAM178B (peptide sequence: DLATQTYIR, peptide start residue: 650) (UniProt Q8IXR5) reads -0.204
log2 fold change with ZNF440 (peptide sequence: THTGEKPYEYQECGK, peptide start residue: 249) (UniProt Q8IYI8) reads 0.257

From the supplement of paper PMC12819154, “High-throughput peptide-centric local stability assay extends protein–ligand identification to membrane proteins, tissues and bacteria” (Nature Structural & Molecular Biology, 2025)
